# This is a selection; strong and weak results do not stand in their true shares.
# Protein sequences, listed by entry. Tags and fused reporters are not part of them. Lines headed by an entry give the natural chain unless they say otherwise; changes in a name come on top.
# UniProt Q8TF05: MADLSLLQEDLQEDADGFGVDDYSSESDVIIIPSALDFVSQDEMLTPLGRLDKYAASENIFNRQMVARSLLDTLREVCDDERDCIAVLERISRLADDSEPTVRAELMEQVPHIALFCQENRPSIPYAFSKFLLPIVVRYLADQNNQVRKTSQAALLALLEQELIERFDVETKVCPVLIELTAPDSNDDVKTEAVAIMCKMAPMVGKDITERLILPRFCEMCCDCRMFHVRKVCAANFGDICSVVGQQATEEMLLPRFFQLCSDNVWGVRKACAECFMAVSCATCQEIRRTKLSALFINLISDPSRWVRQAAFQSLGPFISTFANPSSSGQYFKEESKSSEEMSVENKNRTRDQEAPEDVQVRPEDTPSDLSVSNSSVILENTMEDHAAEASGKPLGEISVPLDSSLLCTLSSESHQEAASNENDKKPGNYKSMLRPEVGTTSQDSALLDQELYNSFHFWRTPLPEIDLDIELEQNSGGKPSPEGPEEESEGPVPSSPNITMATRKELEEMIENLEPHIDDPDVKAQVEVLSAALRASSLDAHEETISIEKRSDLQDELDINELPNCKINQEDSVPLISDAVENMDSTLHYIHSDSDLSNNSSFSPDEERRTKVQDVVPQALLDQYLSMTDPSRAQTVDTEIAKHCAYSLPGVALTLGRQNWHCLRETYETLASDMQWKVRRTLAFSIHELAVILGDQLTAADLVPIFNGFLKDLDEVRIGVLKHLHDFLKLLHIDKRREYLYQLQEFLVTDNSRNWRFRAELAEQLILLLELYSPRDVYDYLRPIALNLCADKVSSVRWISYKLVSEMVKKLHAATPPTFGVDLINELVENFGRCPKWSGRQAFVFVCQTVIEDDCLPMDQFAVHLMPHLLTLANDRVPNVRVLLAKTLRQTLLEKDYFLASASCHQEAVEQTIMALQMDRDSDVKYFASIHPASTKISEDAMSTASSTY
# UniProt Q8NC60: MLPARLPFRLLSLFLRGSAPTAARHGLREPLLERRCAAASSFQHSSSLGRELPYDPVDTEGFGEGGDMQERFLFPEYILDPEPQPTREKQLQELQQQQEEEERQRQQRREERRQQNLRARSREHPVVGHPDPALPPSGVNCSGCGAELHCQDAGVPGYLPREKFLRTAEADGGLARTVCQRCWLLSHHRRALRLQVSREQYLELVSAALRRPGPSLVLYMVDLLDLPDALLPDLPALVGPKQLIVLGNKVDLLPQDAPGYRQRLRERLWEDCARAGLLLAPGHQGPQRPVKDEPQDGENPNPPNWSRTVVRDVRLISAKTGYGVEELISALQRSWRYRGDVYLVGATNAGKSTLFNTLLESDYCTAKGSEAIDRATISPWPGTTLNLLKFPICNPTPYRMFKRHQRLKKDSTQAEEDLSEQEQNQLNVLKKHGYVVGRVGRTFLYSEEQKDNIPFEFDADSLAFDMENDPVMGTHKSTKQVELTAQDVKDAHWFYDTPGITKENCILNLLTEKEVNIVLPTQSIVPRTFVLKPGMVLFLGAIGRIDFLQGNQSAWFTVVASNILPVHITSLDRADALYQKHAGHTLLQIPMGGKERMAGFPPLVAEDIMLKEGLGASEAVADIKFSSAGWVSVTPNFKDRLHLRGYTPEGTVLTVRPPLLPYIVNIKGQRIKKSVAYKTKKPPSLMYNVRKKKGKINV
# UniProt Q8TD19: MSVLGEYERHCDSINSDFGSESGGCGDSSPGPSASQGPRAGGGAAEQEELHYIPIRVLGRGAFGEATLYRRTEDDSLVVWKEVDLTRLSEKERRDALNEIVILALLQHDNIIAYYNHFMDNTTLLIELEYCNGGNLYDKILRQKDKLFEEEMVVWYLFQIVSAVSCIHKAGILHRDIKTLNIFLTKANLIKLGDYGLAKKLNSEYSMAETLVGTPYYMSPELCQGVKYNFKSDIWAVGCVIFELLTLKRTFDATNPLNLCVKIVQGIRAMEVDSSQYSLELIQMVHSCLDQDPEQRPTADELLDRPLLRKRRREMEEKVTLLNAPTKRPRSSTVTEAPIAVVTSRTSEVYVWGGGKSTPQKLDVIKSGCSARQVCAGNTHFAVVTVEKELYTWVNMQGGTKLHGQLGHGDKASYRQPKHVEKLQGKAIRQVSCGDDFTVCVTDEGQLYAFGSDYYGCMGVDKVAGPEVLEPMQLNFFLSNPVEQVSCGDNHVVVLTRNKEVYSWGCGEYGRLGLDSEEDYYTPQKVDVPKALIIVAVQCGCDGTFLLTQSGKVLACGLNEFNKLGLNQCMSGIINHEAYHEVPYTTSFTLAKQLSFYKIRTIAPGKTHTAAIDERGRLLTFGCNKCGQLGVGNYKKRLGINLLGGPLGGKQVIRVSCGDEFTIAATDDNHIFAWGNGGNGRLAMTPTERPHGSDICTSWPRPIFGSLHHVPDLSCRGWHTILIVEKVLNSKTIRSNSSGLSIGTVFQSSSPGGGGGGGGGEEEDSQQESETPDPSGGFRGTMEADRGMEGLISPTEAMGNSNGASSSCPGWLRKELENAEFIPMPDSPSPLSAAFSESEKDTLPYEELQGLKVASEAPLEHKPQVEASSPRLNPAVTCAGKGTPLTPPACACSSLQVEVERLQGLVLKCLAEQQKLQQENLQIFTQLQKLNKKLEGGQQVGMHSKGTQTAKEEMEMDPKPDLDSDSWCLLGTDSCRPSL
# UniProt Q92499: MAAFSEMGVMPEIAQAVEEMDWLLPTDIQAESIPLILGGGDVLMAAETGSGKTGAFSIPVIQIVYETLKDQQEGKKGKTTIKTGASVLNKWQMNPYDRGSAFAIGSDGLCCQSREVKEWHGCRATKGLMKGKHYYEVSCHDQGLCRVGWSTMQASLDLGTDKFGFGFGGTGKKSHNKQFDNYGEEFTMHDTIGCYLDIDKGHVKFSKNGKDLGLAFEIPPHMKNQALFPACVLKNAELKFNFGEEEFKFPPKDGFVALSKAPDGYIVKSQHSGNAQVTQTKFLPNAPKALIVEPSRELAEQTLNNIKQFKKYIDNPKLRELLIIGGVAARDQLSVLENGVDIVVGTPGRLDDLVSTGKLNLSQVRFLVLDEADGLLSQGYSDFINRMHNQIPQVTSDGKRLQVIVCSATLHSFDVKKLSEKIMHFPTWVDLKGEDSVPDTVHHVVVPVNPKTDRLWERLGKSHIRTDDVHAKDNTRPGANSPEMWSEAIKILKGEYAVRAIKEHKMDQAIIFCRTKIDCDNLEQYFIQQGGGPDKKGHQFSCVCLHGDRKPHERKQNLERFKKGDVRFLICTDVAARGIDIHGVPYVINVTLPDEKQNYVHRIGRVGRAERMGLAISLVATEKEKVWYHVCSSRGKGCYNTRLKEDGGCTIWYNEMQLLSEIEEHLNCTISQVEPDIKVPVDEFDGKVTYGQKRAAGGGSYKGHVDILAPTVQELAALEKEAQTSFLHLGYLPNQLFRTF
# UniProt Q8N4M1: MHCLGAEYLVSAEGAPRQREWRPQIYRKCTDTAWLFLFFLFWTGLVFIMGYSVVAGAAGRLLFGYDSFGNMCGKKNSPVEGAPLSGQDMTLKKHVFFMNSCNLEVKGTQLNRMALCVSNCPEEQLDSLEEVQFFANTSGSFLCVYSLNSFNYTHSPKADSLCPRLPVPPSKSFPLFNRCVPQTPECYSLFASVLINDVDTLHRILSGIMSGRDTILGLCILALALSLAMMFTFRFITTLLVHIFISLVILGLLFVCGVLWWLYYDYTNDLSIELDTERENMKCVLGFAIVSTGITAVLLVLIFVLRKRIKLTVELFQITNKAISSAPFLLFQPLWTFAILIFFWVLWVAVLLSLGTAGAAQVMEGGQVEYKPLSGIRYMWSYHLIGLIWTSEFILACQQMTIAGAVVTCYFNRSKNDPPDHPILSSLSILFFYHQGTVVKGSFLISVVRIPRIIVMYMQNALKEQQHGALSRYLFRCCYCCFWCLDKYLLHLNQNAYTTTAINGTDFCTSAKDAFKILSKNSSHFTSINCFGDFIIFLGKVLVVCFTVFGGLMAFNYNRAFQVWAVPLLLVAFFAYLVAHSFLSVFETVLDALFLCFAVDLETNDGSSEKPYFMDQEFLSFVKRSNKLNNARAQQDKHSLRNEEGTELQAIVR
# UniProt Q8TAG9: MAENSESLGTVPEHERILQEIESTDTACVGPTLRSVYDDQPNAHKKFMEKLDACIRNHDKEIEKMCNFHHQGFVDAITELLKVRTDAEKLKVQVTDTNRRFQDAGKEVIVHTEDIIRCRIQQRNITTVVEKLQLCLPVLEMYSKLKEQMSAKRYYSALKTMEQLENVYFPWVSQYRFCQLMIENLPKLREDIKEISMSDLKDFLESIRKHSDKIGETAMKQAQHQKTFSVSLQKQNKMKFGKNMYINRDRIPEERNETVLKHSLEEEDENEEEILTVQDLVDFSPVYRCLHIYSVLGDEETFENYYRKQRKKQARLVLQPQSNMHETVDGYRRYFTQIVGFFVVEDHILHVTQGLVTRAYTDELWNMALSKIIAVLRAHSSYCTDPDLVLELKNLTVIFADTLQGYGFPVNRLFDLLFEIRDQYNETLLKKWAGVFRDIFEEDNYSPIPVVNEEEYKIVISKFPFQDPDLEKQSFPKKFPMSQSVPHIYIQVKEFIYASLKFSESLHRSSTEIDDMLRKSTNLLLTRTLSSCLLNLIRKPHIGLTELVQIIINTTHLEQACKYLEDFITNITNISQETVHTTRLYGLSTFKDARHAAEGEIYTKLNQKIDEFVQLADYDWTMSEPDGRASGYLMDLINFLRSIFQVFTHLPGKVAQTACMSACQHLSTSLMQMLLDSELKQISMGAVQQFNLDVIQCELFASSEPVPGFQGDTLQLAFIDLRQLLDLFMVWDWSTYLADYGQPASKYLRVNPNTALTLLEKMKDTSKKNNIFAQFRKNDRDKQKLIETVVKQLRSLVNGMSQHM
# UniProt Q8N726, whole entry: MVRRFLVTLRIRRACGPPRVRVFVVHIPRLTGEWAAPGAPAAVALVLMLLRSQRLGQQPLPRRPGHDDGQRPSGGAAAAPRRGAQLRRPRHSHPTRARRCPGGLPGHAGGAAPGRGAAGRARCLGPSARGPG
# UniProt Q8N8U9: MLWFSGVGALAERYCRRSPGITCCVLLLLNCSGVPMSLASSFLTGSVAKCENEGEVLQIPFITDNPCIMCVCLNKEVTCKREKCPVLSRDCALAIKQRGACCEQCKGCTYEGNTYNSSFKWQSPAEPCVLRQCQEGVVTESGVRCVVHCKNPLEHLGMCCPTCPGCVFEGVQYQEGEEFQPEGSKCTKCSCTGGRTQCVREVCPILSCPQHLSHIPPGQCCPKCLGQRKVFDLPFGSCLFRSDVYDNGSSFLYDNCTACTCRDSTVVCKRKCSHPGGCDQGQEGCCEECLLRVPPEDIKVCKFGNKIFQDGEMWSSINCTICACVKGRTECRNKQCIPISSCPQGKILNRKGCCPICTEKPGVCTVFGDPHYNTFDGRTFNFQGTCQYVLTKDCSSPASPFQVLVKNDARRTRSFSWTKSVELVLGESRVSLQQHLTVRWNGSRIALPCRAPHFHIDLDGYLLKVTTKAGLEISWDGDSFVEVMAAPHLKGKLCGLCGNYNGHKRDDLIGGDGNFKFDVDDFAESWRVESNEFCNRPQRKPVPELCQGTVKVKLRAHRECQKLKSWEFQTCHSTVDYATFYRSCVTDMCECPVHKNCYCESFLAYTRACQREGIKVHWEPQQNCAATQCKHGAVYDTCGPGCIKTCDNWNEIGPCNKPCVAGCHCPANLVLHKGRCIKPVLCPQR
# UniProt Q8TB52: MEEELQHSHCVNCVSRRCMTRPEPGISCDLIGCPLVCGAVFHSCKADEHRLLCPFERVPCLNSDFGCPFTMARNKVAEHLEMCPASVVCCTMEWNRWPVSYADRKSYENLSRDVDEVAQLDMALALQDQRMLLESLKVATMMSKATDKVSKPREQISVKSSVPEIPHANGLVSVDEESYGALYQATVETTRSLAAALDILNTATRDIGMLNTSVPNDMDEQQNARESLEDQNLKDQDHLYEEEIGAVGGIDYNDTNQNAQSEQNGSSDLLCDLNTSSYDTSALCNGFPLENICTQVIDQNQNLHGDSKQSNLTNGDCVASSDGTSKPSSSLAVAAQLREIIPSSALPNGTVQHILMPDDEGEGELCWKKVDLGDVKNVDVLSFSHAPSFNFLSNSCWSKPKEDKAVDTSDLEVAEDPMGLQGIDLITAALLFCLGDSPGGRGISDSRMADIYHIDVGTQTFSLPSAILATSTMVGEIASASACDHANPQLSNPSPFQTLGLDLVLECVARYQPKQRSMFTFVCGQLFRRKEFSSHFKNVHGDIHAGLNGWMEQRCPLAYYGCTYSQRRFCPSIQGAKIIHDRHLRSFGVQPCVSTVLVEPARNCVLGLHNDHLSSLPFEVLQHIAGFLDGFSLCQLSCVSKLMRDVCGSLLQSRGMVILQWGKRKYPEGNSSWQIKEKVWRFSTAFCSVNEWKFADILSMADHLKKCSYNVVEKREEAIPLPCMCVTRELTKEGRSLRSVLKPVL
# Compound: COC(=O)C#Cc1ccccc1 [methyl 3-phenylpropiolate]
# Assay: log2 ratio of iodoacetamide-alkyne labeling of the cysteine site, DMSO over compound (competition); higher = stronger covalent engagement of the cysteine by the compound, active = 1 or more
# Details: 500 µM; treatment time 1 h; system: HEK293T cell lysate
# Outline: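 Reporter intensities give each cysteine's log2 competition ratio as the mean of control channels over the mean of compound channels. The samples were HEK293T lysate (2 mg/mL) given vehicle or electrophile (500 µM, 1 h, ambient temperature), then iodoacetamide alkyne (1 h), followed by click coupling to sCIP-TMT reagents, pooling, trypsin digestion overnight at 37 °C, streptavidin enrichment, acid elution, Orbitrap Eclipse LC-MS/MS with FAIMS and FragPipe quantification. Duplicate channels and three replicates were run, and cysteines quantified in only one replicate were discarded.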
row,Target,log2 ratio of iodoacetamide-alkyne labeling
1,STAG2 C915 (UniProt Q8N3U4),inactive: 0.419
2,PPP4R1 C78 (UniProt Q8TF05),inactive: -0.0473
3,UniProt Q8NBU5_C359,inactive: 0.41
4,UniProt Q8NC60_C393,inactive: 0.2
5,NEK9 C25 (UniProt Q8TD19),active: 1.21
6,DDX1 C110 (UniProt Q92499),inactive: 0.315
7,UniProt Q8N4M1_C3,inactive: 0.519
8,IPO4 C459 (UniProt Q8TEX9),inactive: -0.0458
9,EXOC6 C135 (UniProt Q8TAG9),inactive: 0.23
10,UniProt Q8N726_C123,inactive: 0.8
11,UniProt Q8N8U9_C189,inactive: 0.276
12,SUPT20H C298 (UniProt Q8NEM7),inactive: 0.262
13,FBXO30 C317 (UniProt Q8TB52),inactive: 0.564
14,EDARADD C154 (UniProt Q8WWZ3),inactive: -0.0663
15,UniProt Q8WUQ7_C699,inactive: 0.0859

# In a second layout: results already given.
row | Target | log2 ratio of iodoacetamide-alkyne labeling
2 | PPP4R1 C78 (UniProt Q8TF05) | inactive: -0.0473
3 | UniProt Q8NBU5_C359 | inactive: 0.41

# Source: the supplement of paper PMC11006884
